# In paper PMC4666357:
# T1: FLAG-tagged CARF (collaborator of alternative reading frame protein) (human), Q9NXV6
# T1 chain: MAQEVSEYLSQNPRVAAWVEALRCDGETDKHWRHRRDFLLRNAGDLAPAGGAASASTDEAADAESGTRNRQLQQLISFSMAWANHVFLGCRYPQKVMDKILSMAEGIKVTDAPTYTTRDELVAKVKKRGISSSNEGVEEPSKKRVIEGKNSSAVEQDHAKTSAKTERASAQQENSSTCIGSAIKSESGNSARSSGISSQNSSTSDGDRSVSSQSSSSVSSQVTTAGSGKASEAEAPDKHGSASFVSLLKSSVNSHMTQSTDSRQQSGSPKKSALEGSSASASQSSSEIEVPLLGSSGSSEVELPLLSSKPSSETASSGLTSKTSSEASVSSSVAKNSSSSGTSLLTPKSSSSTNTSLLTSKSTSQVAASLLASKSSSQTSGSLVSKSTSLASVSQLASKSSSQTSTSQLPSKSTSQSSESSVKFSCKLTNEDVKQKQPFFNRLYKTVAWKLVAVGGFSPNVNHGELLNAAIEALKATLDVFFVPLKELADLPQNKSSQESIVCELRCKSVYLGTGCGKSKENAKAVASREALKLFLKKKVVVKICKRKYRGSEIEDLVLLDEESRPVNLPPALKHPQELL
# Molecular target: T1, FLAG-tagged CARF (collaborator of …)
# Test: affinity purification with mass spectrometry; FLAG–CARF complexes from TOCARF cell extract (1 ng/ml doxycycline, 48 h; buffer A: 50 mM Tris-HCl pH 8.0, 150 mM NaCl, 0.5% IGEPAL CA-630) on anti-FLAG M2 agarose, 4 h at 4°C, eluted with FLAG peptide; SDS–PAGE, silver staining, LC-MS/MS; band confirmed by immunoblot with anti-XRN2
# Conditions: remark: other sources report otherwise
binder,measurement,value
"5′-3′ exoribonuclease 2 (XRN2), endogenous, Q9H0D6-1 1-950 (enzyme) MGVPAFFRWLSRKYPSIIVNCVEEKPKECNGVKIPVDASKPNPNDVEFDNLYLDMNGIIHPCTHPEDKPAPKNEDEMMVAIFEYIDRLFSIVRPRRLLYMAIDGVAPRAKMNQQRSRRFRASKEGMEAAVEKQRVREEILAKGGFLPPEEIKERFDSNCITPGTEFMDNLAKCLRYYIADRLNNDPGWKNLTVILSDASAPGEGEHKIMDYIRRQRAQPNHDPNTHHCLCGADADLIMLGLATHEPNFTIIREEFKPNKPKPCGLCNQFGHEVKDCEGLPREKKGKHDELADSLPCAEGEFIFLRLNVLREYLERELTMASLPFTFDVERSIDDWVFMCFFVGNDFLPHLPSLEIRENAIDRLVNIYKNVVHKTGGYLTESGYVNLQRVQMIMLAVGEVEDSIFKKRKDDEDSFRRRQKEKRKRMKRDQPAFTPSGILTPHALGSRNSPGSQVASNPRQAAYEMRMQNNSSPSISPNTSFTSDGSPSPLGGIKRKAEDSDSEPEPEDNVRLWEAGWKQRYYKNKFDVDAADEKFRRKVVQSYVEGLCWVLRYYYQGCASWKWYYPFHYAPFASDFEGIADMPSDFEKGTKPFKPLEQLMGVFPAASGNFLPPSWRKLMSDPDSSIIDFYPEDFAIDLNGKKYAWQGVALLPFVDERRLRAALEEVYPDLTPEETRRNSLGGDVLFVGKHHPLHDFILELYQTGSTEPVEVPPELCHGIQGKFSLDEEAILPDQIVCSPVPMLRDLTQNTVVSINFKDPQFAEDYIFKAVMLPGARKPAAVLKPSDWEKSSNGRQWKPQLGFNRDRRPVHLDQAAFRTLGHVMPRGSGTGIYSNAAPPPVTYQGNLYRPLLRGQAQIPKLMSNMRPQDSWRGPPPLFQQQRFDRGVGAEPLLPWNRMLQTQNAAFQPNQYQMLAGPGGYPPRRDDRGGRQGYPREGRKYPLPPPSGRYNWN",binding,binds

# Results are given in words; binding and its absence hold for the method and conditions named. Binding seen in cells or lysates may run through a third protein. A yes stands for co-enrichment or nearness to the bait. Other partners may have been found. Tags and fused reporters may be left off the sequences shown.
